PubChem BioAssay AID1347423 (Functional Genomics Laboratory (NCATS/FGL), 2020)
Screen size: about 52,000 sequences; about 210 (0.4%) were called active.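 How the source made its calls: active means gene whose silencing raises cell survival under the drug, median off-target-corrected z-score across its silencing RNAs 2 or more; inactive means the rest.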 This is one part of the list.

Assay: Resistance to Poly (ADP-Ribose) Polymerase inhibitor: Gene Identification via Genome-wide siRNA Screen
Settings: mouse BRCA2 R2336H ES cells, olaparib, CellTiter-Glo viability; active compounds read high
Method in brief: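 Mouse BRCA2 R2336H ES cells were reverse-transfected with siRNA (20 nM final), treated at 48 h with 500 nM olaparib, and read by CellTiter-Glo after 72 h. Scores: MAD-based z per siRNA, median per gene, seed off-target correction.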

Sequence	z-score
CCCAAUCGGUUAAUUGUUGTT against Vcp	inactive: -0.861
GCCAGUUAGGGAACUACGATT against AI428795	inactive: 1.11
CGCAAGAUUGCAUUGUGUATT against BC049354	inactive: -0.644
GGCAUGAACACUGAGGAGUTT against BC038881	inactive: 0.377
GCCUAGGUAGUGGAGAUGATT against Nkd1	inactive: -1.84
CCUUGGCACAUGGAUCUAUTT against Tomm22	inactive: -1.86
GGUGGAAGACGUACUUCCUTT against Nfatc1	inactive: 0.641
GGAGUAGCAAAGAACUGCUTT against Arpc4	inactive: -0.783
GGAAAUUUCAGAGCUCAAGTT against Trpc2	inactive: -0.445
GGGUCUACCUGACAAUAAATT against C130007D14	inactive: 0.855
GGCUUUGUAUAUUCUGUUGTT against Fkbp6	inactive: -0.242
CCUGAAAGUCGUUUAUCGCTT against Il7r	inactive: -0.0595
GGGCUGAAGUGAAAACAGCTT against Mmp8	inactive: 0.835
CGGCAGUCCUUGUUAGGUATT against Olfr374	inactive: -0.555
GAGCAGCUCUUUAGCCAGGTT against 1110007C05Rik	inactive: -0.933
GGACAGUGAAUCUAUUGCUTT against Herc1	inactive: 0.332
GGAUGAAGUAGACUUAGAUTT against Depdc1b	inactive: -0.769
CCUUACCCUGUUAUACAAGTT against C86302	inactive: 1.7
GCACUAUUUUGGAUUAGUCTT against Usp12	inactive: -0.239
GGAGGCAGCAAAAAGGUUGTT against Olfr1110	inactive: -1.28
GCCGAAGUCGACAAUAAUCTT against Gm1128	inactive: -0.306
GGGUGAUCGCACGAUUGAGTT against Casq2	inactive: 0.161
GGUCCUUAAGUCCUUUGACTT against C230004F18Rik	inactive: -0.124
GGCCCGGUAAAGUGGUAAGTT against 2310040A13Rik	inactive: -1.48
GCAGUACGAAAUGGUAUACTT against 5430439G14Rik	inactive: -1.81
GGCAUAUCGAGUGCUCAGUTT against Dnajc4	inactive: -0.923

3 records drawn at random from those above, as already listed:
Sequence	z-score
CCCAAUCGGUUAAUUGUUGTT against Vcp	inactive: -0.861
GCCAGUUAGGGAACUACGATT against AI428795	inactive: 1.11
GGGUGAUCGCACGAUUGAGTT against Casq2	inactive: 0.161

Later entries.

Sequence	z-score
CCAAUUACGGAGAUUGGAATT against Tm4sf6	inactive: -0.611
CCGCGUCUGUAUUUGAUAUTT against C330023F11Rik	inactive: -1.51
GGCCAGCUUUUCCUAGAUGTT against C030006K11Rik	inactive: 0.0929
CGUAGUGCGCUUCAUUCAATT against 1810047C23Rik	inactive: 0.0596
GCCACAACAAACCUACGACTT against Xpc	inactive: 0.138
GGACAACAGCUGAAGAACUTT against Slc35a1	inactive: -1.33
GCUGAUCACACCAUCCCUATT against Hccs	inactive: 0.97
CCUAGCAACAUUCUUUAUGTT against Rps6ka3	inactive: 0.259
CGUAUCGAUGUGGAUAAUATT against Tpst1	inactive: 0.15
GGCAAUGAUCUUAUUCCAATT against 4921521F21Rik	inactive: -1.3
GGCUGAAGAUGGAGAGAACTT against Tbca	inactive: -2.5
GGGUUUCACCCAAAGCCUUTT against Zfp354c	inactive: -0.163
GGUAUCCACAGUAAAAUUGTT against Pcp4	inactive: -0.523
GCUGCAAUAGUCACUGGAGTT against H2-K1	inactive: -1.27
UAGUCGGCCACUUCAGAGATT against Olfr825	inactive: 0.46
GGGCAGGAUUGUCUGUUUATT against 1110004D19Rik	inactive: -0.356
GCUGACCUACAUCUCGAAGTT against Plekha2	inactive: 1.32
GGUGAAGAAGACUCAUGAATT against Gnb1l	inactive: 2.6
CCUUGGUACUUCGAGUUUATT against Gpr87	inactive: -0.739
GCAUGUUAAGGGCAAUGGUTT against 4931440F15Rik	inactive: -0.542
GCCAAUCUCUGCUAGAUACTT against D11Ertd18e	inactive: 0.433
GGAGUUGGCUAAGCUCUCATT against Elmo2	inactive: -0.661
GCCAACCCUGAAAACCCUUTT against Gc	inactive: 0.35
CCUUCUGGAGUACAUAUCCTT against Trip6	inactive: 1.04
GGAAGUAUGCAGAAGACGATT against Sertad4	inactive: 0.0137
GGGUCUGGUUUAUUCAUGUTT against Zic1	inactive: 0.685

Single entries from the list.
z-score, GCUGCAAUAGUCACUGGAGTT against H2-K1 reads inactive: -1.27
z-score, GGGUCUGGUUUAUUCAUGUTT against Zic1 reads inactive: 0.685

Further records follow:

Sequence	z-score
CGGCAAGCCCAAAAAGGUCTT against Dlx3	inactive: 1.63
GGACAUUUUCUUUUCACGUTT against 8030451K01Rik	inactive: -0.0614
GGAGGAAGAAAUGUUUCGCTT against Slc9a8	inactive: 1.9
CCUGAUGCACGUGCUAAAGTT against Ripk1	inactive: 2.72
CCACCAAUGAUUUGAUGCATT against Gpr75	inactive: -0.29
CGAAAAGCCUCAUUUCAUCTT against Clp1	inactive: -0.062
GCAUUUAAGGACCUUGUAATT against Olfr813	inactive: -0.172
CCUCCAUUGACGCAAUAUCTT against Mvk	inactive: 0.184
CCGUUUCUUCCUAAUUGGUTT against D7Ertd743e	inactive: -0.0778
GGAAUCAGGACAUUAGUGATT against Olfr868	inactive: 0.235
GGACGUACAAAACUUCCUCTT against Hnrpf	inactive: 0.264
GGACAGUGUGUUUUCUUGUTT against 8430438L13Rik	inactive: -0.0166
GGAUCUCUUUGUUAAUGGUTT against BC012256	inactive: -0.207
GGCUACCGAGACAAUGCUUTT against A030012M09Rik	inactive: 0.212
GGUGGCUUUGCUGAAGUACTT against 9330129D05Rik	inactive: -1.44
GGGAGUUAUUUAAGAUUCUTT against Has1	inactive: -0.281
GGAGUGGUAUAAGUCGAAATT against Prph1	inactive: 0.337
GGUUCUGAUGAGUCUCAUGTT against 2010311D03Rik	inactive: -1.1
CCGGACUUUAGAAUAAUGUTT against Hhex	inactive: 2.14
GCCACAACUUAAUUUUCUGTT against 9630020C08Rik	inactive: 0.39
CCCUCUUUACCAGUAUUACTT against Pla2g5	inactive: -0.263
GCUCCAGUUAAAUGUUACATT against Icam5	inactive: -0.14
GCUAAAUUACACAUUGACCTT against Vcam1	inactive: 1.07
GGAGCAACUAGGAUGAUGATT against Rog	inactive: -2.11
GCAAAAAUGUUAAGGGUGCTT against Snph	inactive: 0.8
GCUCUCUUAAAGCAUGUAATT against Cog6	inactive: -0.415

Sequence	z-score
GCUGUUUUAUCUCCAAUGGTT against Araf1	active: 1.6
GGAACAGUCAUAUAAAGAATT against Grm8	inactive: 0.0707
GGUGCUGGUUUUUAAGAAATT against Hsbp1	inactive: 0.423
GGUUACCAUGAGGAGGAUUTT against Spata6	inactive: 0.172
GGAAAUCUAUUUCAUUGACTT against Zcchc10	inactive: -1.17
GCUUUUUAAGACUUUGUCATT against Mcl1	inactive: -3.11
GGGUUUCGCUAGAACCAUUTT against BC023181	inactive: 0.922
GGCAACUAUGUAAAACCUUTT against Sorbs1	inactive: 0.653
GGAAAAAAAAAUGACUCCUTT against Kcne1	inactive: 0.114
GGCUCCUGAUUGUUUACCCTT against Hbb-bh1	inactive: -0.731
GGACCAUGUUAGAGCAUGCTT against Traf2	inactive: 1.82
GGCAGGUAAUAAACAGACATT against 2410141K09Rik	inactive: -0.539
CGGCAACCAAUGCAUACAATT against Tpd52	inactive: 0.505
GCUUUGUUGGGAGUGAAAUTT against Olfr728	inactive: -2.11
GGGAGAUGUUGUCAGGGUCTT against Rnasel	inactive: 0.99
CGAAGAUAUUACUAUUCUGTT against Lama2	inactive: 0.473
GCCCUCAGAAGACGACGAUTT against Wbscr5	inactive: 0.96
GGAUUCUUUGAUUCAAUGUTT against Tlm	inactive: -0.592
GGUCGGGAUUUAAUUUGUATT against E130103I17Rik	inactive: -0.76
GGCCAUGAAUAUGGAGUCCTT against BC002216	inactive: 0.453
CGAAGUGGUUUUAUGUACUTT against Cdkn2b	inactive: -0.2
GGCUGUUGAGAUCCCAGAGTT against Wbscr21	inactive: -0.923
GGGUAUUCAUUGAGUGGUCTT against Gnb4	inactive: 4.4e-05
GCUGAUGUAAGUAUUCUAGTT against Pdcl	inactive: 0.187
GGAAAACAAUUCGUCUGCCTT against Oit1	inactive: -0.45
GGGCACAGGCGAACUAUGUTT against Arhgap25	inactive: 0.524
